# Laboratory results from PubChem BioAssay AID248 (DTP/NCI, 2004).
# The list shows only some results of the screen, not a fair sample: it is rich in T/C values a quarter to a half above the control, in often repeated tests (any T/C) and in doses without a T/C. Further doses and runs are listed elsewhere. T/C is the treated group as % of the vehicle group. Some entries give survivors of the animals treated and no T/C: the source files T/C as zero there, which appears to mark a toxic dose or a test without result, not a measured value. Some doses without a T/C left all or most animals alive at the check, yet need not have been tolerated: survival well below the control is almost never listed, so the zero probably covers shortened survival too. Counts of survivors are from the toxicity check (mostly the fifth day) where no day follows; animals may have died later. Schedules are NCI's codes, taken here to give the interval after Q, in days (D) or hours (H), and the number of doses after X. Some entries hold several experiments; the results are listed from low to high. Some schedule codes hold Z or #, which are not explained here. Where survival is the endpoint, the PubChem record calls one and a half times the control and up active, and a quarter to a half above the control has no call in these data; cut-offs in other NCI protocols can differ. Some T/C values are followed by the survivors on the day toxicity was checked, most often the fifth; where none is given, no animal had died by that day.
# Test system: L1210 leukemia ip in BDF1 mice, survival T/C
# Experiment: NCI In Vivo Anticancer Drug Screen. Data for tumor model L1210 Leukemia (intraperitoneal) in B6D2F1 (BDF1) mice
# Conditions: T/C endpoint: mean survival time, higher T/C = longer survival
# [1] = dose: 200.0 mg/kg/injection, schedule: Q01DX009 (ip), vehicle: saline with Tween-80
# [2] = dose: 100.0 mg/kg/injection, schedule: Q04DX002 (ip), vehicle: saline
# [3] = dose: 200.0 mg/kg/injection, schedule: Q04DX002 (ip), vehicle: saline
# [4] = dose: 400.0 mg/kg/injection, schedule: Q04DX002 (ip), vehicle: saline
# [5] = dose: 150.0 mg/kg/injection, schedule: Q01DX001 (ip), vehicle: other
# [6] = dose: 300.0 mg/kg/injection, schedule: Q01DX001 (ip), vehicle: other
# [7] = dose: 100.0 mg/kg/injection, schedule: Q01DX009 (ip), vehicle: saline with Tween-80
# [8] = dose: 200.0 mg/kg/injection, schedule: Q01DX009 (ip), vehicle: saline
# [9] = dose: 400.0 mg/kg/injection, schedule: Q04DX003 (ip), vehicle: saline
smiles,measurement,setting,value
CN(C)c1ccc(/C=C(\C#N)c2ccccc2)cc1,survivor count,"dose: 400.0 mg/kg/injection, schedule: Q01DX001 (ip), vehicle: saline with Tween-80",6 of 6
CC(=O)NC1CCCC(OC(C)=O)C1 (centres undefined),survivor count,[1],2 of 3
O=C(Nc1cc(C2=NCCN2)cc(C2=NCCN2)c1)c1ccc(C(=O)Nc2cc(C3=NCCN3)cc(C3=NCCN3)c2)cc1,survivor count,"dose: 8.0 mg/kg/injection, schedule: Q01DX Z (ip), vehicle: carboxymethylcellulose (CMC)",6 of 6
same,survivor count,"dose: 15.0 mg/kg/injection, schedule: Q01DX Z (ip), vehicle: methylcellulose (MC)",0 of 6
same,survivor count,"dose: 30.0 mg/kg/injection, schedule: Q01DX Z (ip), vehicle: methylcellulose (MC)",0 of 6
same,survivor count,"dose: 60.0 mg/kg/injection, schedule: Q01DX Z (ip), vehicle: methylcellulose (MC)",0 of 6
same,survivor count,"dose: 120.0 mg/kg/injection, schedule: Q01DX Z (ip), vehicle: methylcellulose (MC)",0 of 6
CC(NC(=O)NCCCl)c1ccsc1 (centres undefined),survivor count,"dose: 20.0 mg/kg/injection, schedule: Q01DX009 (ip), vehicle: Klucel (hydroxypropylcellulose) (HPC)",0 of 6
same,survivor count,"dose: 40.0 mg/kg/injection, schedule: Q01DX009 (ip), vehicle: Klucel (hydroxypropylcellulose) (HPC)",0 of 6
same,survivor count,"dose: 75.0 mg/kg/injection, schedule: Q01DX009 (ip), vehicle: Klucel (hydroxypropylcellulose) (HPC)",2 of 6
same,survivor count,"dose: 150.0 mg/kg/injection, schedule: Q01DX009 (ip), vehicle: Klucel (hydroxypropylcellulose) (HPC)",0 of 6
same,survivor count,"dose: 300.0 mg/kg/injection, schedule: Q01DX009 (ip), vehicle: Klucel (hydroxypropylcellulose) (HPC)",3 of 6
CCCCCCNCCC[P+](c1ccccc1)(c1ccccc1)c1ccccc1,survivor count,[2],0 of 3
same,survivor count,[3],0 of 3
same,survivor count,[4],0 of 3
C[AsH](C)CC[AsH](C)C.C[AsH](C)CC[AsH](C)C.C[AsH](C)CC[AsH](C)C.[Ni],survivor count,[2],2 of 3 and 3 of 3
same,survivor count,[3],0 of 3
same,survivor count,[4],0 of 3
CCN(CC)CCCC(C)Nc1cc(N)nc2nc(-c3ccccc3)c(-c3ccccc3)nc12 (centres undefined),survivor count,"dose: 19.0 mg/kg/injection, schedule: Q01DX001 (ip), vehicle: other",6 of 6
same,survivor count,[5],0 of 6
same,survivor count,[6],0 of 6
CCOP(=S)(OCC)S/C(C(=O)NC)=C(/C)O,survivor count,"dose: 25.0 mg/kg/injection, schedule: Q01DX009 (ip), vehicle: Klucel (hydroxypropylcellulose) (HPC)",0 of 3
same,survivor count,"dose: 50.0 mg/kg/injection, schedule: Q01DX009 (ip), vehicle: Klucel (hydroxypropylcellulose) (HPC)",0 of 3
same,survivor count,"dose: 100.0 mg/kg/injection, schedule: Q01DX009 (ip), vehicle: Klucel (hydroxypropylcellulose) (HPC)",0 of 3
same,survivor count,"dose: 200.0 mg/kg/injection, schedule: Q01DX009 (ip), vehicle: Klucel (hydroxypropylcellulose) (HPC)",0 of 3
same,T/C,"dose: 400.0 mg/kg/injection, schedule: Q04DX003 (sc), vehicle: olive oil, sesame oil, peanut oil",126 % of control [5 of 6 alive]
OC(CNc1ccnc2cc(Cl)ccc12)CNC1CCCCC1 (centres undefined),survivor count,[5],0 of 6
same,survivor count,[6],1 of 6
COc1cc(OC)c(/C=C/c2cc3ccccc3c[n+]2C)c(OC)c1,survivor count,"dose: 50.0 mg/kg/injection, schedule: Q01DX009 (ip), vehicle: saline with Tween-80",0 of 3
same,survivor count,[7],0 of 3
same,survivor count,[1],0 of 3
CN(Cc1ccccc1)c1ccc(SC#N)cc1,survivor count,"dose: 400.0 mg/kg/injection, schedule: Q01DX001 (ip), vehicle: saline",2 of 4
[CH3][Sn]1([CH3])[CH2]CC[CH2]1,survivor count,"dose: 50.0 mg/kg/injection, schedule: Q01DX009 (ip), vehicle: saline",1 of 3
same,survivor count,"dose: 100.0 mg/kg/injection, schedule: Q01DX009 (ip), vehicle: saline",1 of 3
same,survivor count,[8],0 of 3
COc1cccc(NC(=S)Nc2cccc(OC)c2)c1,survivor count,[7],2 of 3
same,survivor count,"dose: 100.0 mg/kg/injection, schedule: Q04DX002 (ip), vehicle: saline with Tween-80",3 of 3
same,survivor count,"dose: 400.0 mg/kg/injection, schedule: Q01DX009 (ip), vehicle: saline with Tween-80",3 of 3
OCCSC1=NCCN1,survivor count,[9],4 of 6
Nc1nc2ccccc2c(=O)[nH]1,survivor count,"dose: 200.0 mg/kg/injection, schedule: Q04DX003 (ip), vehicle: saline with Tween-80",2 of 6
same,survivor count,"dose: 400.0 mg/kg/injection, schedule: Q04DX003 (ip), vehicle: saline with Tween-80",1 of 6
C=C1CC(OC(C)=O)C2C(C)C(=O)OC2C2C1CC1OC12C (centres undefined),survivor count,[4],2 of 3
CCN(CC)CCOC(=O)c1ccc(C(Cl)Cl)cc1,survivor count,[8],3 of 3
CCN(CC)CC(C)Nc1ccc([N+](=O)[O-])c2sc3ccccc3c(=O)c12 (centres undefined),T/C,"dose: 18.0 mg/kg/injection, schedule: Q01DX Z (ip), vehicle: carboxymethylcellulose (CMC)",139 % of control
same,T/C,"dose: 27.0 mg/kg/injection, schedule: Q01DX Z (ip), vehicle: carboxymethylcellulose (CMC)",144 % of control
same,T/C,"dose: 27.0 mg/kg/injection, schedule: Q01DX Z (ip), vehicle: methylcellulose (MC)",128 and 131 % of control
same,T/C,"dose: 30.0 mg/kg/injection, schedule: Q01DX Z (ip), vehicle: other",132 % of control
same,T/C,"dose: 40.0 mg/kg/injection, schedule: Q01DX Z (ip), vehicle: carboxymethylcellulose (CMC)",141 % of control
same,T/C,"dose: 41.0 mg/kg/injection, schedule: Q01DX Z (ip), vehicle: carboxymethylcellulose (CMC)",125 % of control
same,T/C,"dose: 61.0 mg/kg/injection, schedule: Q01DX Z (ip), vehicle: carboxymethylcellulose (CMC)",141 % of control
same,T/C,"dose: 92.0 mg/kg/injection, schedule: Q01DX Z (ip), vehicle: carboxymethylcellulose (CMC)",143 % of control
same,survivor count,"dose: 135.0 mg/kg/injection, schedule: Q01DX Z (ip), vehicle: carboxymethylcellulose (CMC)",6 of 6
same,survivor count,"dose: 250.0 mg/kg/injection, schedule: Q01DX Z (ip), vehicle: carboxymethylcellulose (CMC)",5 of 6
same,survivor count,"dose: 500.0 mg/kg/injection, schedule: Q01DX Z (ip), vehicle: carboxymethylcellulose (CMC)",4 of 6
[O]=[Sb]([OH])([c]1ccccc1)[c]1ccccc1,survivor count,"dose: 40.0 mg/kg/injection, schedule: Q01DX001 (ip), vehicle: saline",0 of 6
O=C1C=C(N2CCCC2)CC1,survivor count,"dose: 300.0 mg/kg/injection, schedule: Q01DX001 (ip), vehicle: saline",3 of 6
CN(C)CCC1CCCCN1 (centres undefined),survivor count,"dose: 200.0 mg/kg/injection, schedule: Q04DX003 (ip), vehicle: saline",3 of 6
same,survivor count,[9],2 of 6
COc1cccc[n+]1[O-],survivor count,[9],0 of 6
NC(=S)c1c(N)n(C2OC(CO)C(O)C2O)c2ncnc(N)c12 (centres undefined),T/C,"dose: 25.0 mg/kg/injection, schedule: Q01DX005 (ip), vehicle: saline",137 % of control [4 of 6 alive]
same,survivor count,"dose: 50.0 mg/kg/injection, schedule: Q01DX005 (ip), vehicle: saline",0 of 6
same,survivor count,"dose: 100.0 mg/kg/injection, schedule: Q01DX005 (ip), vehicle: saline",0 of 6
same,survivor count,"dose: 200.0 mg/kg/injection, schedule: Q01DX005 (ip), vehicle: saline",0 of 6
CC(=O)Nc1ccc2c(c1)C(N)c1ccccc1-2 (centres undefined),T/C,[8],148 % of control
same,T/C,"dose: 200.0 mg/kg/injection, schedule: Q01DX Z (ip), vehicle: saline",134 % of control
same,survivor count,"dose: 300.0 mg/kg/injection, schedule: Q01DX009 (ip), vehicle: saline with Tween-80",3 of 6
same,survivor count,"dose: 300.0 mg/kg/injection, schedule: Q01DX Z (ip), vehicle: carboxymethylcellulose (CMC)",5 of 6
same,survivor count,"dose: 300.0 mg/kg/injection, schedule: Q01DX Z (ip), vehicle: saline",3 of 6
same,survivor count,"dose: 400.0 mg/kg/injection, schedule: Q01DX009 (ip), vehicle: saline",1 of 6
